Data reported in article PMC9234244.
No constants are given. Whether binding was seen depends on the method and setting. Binding seen in cells or lysates may run through a third protein. Some results given as binding are weak or reduced against the parent protein; the word gives no strength. For part of these data: Sequences can lack the tags named with a protein.

By UniProt entry, the sequences of proteins in these tests, tags left out. Residues count along the entry.
UniProt P36894, residues 24-532: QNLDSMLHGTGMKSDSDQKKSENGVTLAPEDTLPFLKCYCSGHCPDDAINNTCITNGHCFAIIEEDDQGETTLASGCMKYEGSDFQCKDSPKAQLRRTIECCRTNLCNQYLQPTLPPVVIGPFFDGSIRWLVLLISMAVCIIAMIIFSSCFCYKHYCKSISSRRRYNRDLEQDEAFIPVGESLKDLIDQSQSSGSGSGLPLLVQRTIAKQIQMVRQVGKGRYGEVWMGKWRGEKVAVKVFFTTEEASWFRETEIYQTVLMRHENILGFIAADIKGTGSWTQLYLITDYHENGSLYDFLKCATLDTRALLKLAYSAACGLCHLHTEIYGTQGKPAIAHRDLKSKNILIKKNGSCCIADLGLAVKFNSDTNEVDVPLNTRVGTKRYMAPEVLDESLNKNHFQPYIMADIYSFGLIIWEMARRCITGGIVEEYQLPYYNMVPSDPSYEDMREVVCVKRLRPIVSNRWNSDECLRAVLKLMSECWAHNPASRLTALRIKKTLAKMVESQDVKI
UniProt P56704, residues 19-352: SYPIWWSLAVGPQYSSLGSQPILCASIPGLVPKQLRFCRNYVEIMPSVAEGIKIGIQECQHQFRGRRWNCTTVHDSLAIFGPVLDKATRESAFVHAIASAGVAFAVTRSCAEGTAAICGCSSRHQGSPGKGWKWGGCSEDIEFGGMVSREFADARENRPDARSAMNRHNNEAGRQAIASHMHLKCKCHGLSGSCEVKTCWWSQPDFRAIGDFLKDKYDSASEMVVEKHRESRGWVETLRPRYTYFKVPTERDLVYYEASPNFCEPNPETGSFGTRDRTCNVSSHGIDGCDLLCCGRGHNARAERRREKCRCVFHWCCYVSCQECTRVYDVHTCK
UniProt O00744, residues 29-389: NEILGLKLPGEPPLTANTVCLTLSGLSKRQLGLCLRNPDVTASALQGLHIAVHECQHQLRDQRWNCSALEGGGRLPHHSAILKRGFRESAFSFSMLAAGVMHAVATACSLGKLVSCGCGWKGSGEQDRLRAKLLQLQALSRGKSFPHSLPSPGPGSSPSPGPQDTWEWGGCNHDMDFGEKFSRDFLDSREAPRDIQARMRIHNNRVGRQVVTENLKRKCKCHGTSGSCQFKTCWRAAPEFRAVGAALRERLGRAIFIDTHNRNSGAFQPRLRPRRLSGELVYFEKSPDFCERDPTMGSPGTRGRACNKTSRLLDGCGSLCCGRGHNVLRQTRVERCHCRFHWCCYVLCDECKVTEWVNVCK
UniProt Q9EQD0, residues 27-585: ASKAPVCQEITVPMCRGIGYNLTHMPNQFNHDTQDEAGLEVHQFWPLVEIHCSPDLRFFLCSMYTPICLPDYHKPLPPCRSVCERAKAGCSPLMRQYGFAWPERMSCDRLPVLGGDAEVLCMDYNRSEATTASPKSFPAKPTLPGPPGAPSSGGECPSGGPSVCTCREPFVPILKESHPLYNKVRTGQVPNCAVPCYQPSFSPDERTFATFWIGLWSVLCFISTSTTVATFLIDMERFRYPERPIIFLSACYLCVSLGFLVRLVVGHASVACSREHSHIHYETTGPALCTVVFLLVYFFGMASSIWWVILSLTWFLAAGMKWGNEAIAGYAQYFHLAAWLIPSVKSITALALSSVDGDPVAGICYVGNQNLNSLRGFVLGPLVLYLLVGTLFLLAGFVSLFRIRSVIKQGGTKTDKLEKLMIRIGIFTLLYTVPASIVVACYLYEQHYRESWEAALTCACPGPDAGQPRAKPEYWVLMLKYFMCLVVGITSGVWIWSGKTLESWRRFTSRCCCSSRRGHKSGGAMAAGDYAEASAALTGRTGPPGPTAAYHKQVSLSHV

B1: FSTL1-HA (follistatin-like 1, HA-tagged) (protein, UniProt Q62356 19-306)
chain: EEEPRSKSKICANVFCGAGRECAVTEKGEPTCLCIEQCKPHKRPVCGSNGKTYLNHCELHRDACLTGSKIQVDYDGHCKEKKSASPSASPVVCYQANRDELRRRLIQWLEAEIIPDGWFSKGSNYSEILDKYFKSFDNGDSHLDSSEFLKFVEQNETAINITTYADQENNKLLRSLCVDALIELSDENADWKLSFQEFLKCLNPSFNPPEKKCALEDETYADGAETEVDCNRCVCSCGHWVCTAMTCDGKNQKGVQTHTEEEKTGYVQELQKHQGTAEKTKKVNTKEI

What was measured:
[1] = molecular target: ALK3-HA (BMP type I receptor ALK3) (UniProt P36894); experiment: co-IP; HEK293T cells co-transfected; whole cell lysates incubated with the antibody at 4 °C overnight, then protein G or protein A beads 6 h at 4 °C; Western blotting
Wnt3a-V5 [2] = molecular target: Wnt3a-V5 (UniProt P56704); experiment: co-IP; conditioned medium of co-transfected HEK293T cells immunoprecipitated with anti-HA or anti-V5; Western blotting
Wnt10b-V5 [3] = molecular target: Wnt10b-V5 (UniProt O00744); experiment: as above
Wnt2-V5 = molecular target: T1, Wnt2-V5 (UniProt P09544); experiment: co-IP; HEK293T cells co-transfected; whole cell lysates incubated with the antibody at 4 °C overnight, then protein G or protein A beads 6 h at 4 °C; Western blotting
T1 sequence: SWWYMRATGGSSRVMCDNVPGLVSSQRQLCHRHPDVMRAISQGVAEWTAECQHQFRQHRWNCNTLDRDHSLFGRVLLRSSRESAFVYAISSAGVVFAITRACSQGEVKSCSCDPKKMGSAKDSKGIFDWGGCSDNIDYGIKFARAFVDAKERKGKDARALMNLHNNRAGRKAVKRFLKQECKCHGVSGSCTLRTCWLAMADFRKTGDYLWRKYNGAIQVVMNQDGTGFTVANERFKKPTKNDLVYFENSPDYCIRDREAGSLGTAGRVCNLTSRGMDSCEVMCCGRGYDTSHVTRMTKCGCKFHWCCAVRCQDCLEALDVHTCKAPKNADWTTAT

FZD4 (Frizzled-4) = molecular target: T2, FZD4 (Frizzled-4) (UniProt Q61088); experiment: as above
T2 sequence: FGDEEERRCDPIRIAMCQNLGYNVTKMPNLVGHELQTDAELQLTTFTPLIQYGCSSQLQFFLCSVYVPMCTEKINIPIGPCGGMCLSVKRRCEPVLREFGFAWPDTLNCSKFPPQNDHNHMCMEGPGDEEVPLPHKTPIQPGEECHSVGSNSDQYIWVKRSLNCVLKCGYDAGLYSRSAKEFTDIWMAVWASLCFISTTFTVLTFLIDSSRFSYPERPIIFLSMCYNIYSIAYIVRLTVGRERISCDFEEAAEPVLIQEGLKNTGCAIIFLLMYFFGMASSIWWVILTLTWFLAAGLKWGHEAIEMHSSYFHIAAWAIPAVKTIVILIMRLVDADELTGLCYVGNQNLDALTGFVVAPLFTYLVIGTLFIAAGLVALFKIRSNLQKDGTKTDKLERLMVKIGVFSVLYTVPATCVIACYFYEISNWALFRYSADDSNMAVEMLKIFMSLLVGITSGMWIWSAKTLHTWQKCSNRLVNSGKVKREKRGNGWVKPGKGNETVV

FZD5 (SNAP-Fzd5) = FZD5 (SNAP-Fzd5) (UniProt Q9EQD0); experiment: as above
Wnt9a-V5 = molecular target: T3, Wnt9a-V5 (UniProt O14904); experiment: as above
T3 sequence: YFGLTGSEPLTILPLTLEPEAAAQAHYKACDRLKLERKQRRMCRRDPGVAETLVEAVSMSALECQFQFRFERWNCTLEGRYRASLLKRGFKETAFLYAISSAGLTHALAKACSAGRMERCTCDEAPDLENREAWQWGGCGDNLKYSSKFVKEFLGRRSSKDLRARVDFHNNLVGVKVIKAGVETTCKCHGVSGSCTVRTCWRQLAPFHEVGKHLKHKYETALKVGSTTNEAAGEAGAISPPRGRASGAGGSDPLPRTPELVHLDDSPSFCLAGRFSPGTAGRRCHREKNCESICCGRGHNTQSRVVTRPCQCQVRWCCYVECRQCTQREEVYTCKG

Wnt3a-V5 [4] = molecular target: Wnt3a-V5 (UniProt P56704); experiment: as above
Wnt8b-V5 = molecular target: T4, Wnt8b-V5 (UniProt Q93098); experiment: as above
T4 sequence: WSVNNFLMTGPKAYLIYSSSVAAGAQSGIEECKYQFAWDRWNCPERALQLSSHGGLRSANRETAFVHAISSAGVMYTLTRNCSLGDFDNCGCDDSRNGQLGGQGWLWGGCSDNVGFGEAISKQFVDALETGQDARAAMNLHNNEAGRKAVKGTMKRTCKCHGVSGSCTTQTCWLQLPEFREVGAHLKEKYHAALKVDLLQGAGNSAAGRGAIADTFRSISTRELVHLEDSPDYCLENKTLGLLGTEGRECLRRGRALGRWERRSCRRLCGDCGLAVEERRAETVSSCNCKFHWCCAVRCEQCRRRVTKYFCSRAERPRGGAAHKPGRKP

[5] = molecular target: T5, SNAP-tagged FZD4 (SNAP-FZD4) (UniProt Q61088); experiment: as above
T5 sequence (chain, BG-PEG12-Biotin on the SNAP tag (cell surface labelling experiment only)): T2 sequence

Wnt10b-V5 [6] = molecular target: Wnt10b-V5 (UniProt O00744); experiment: as above
Wnt8a-V5 = molecular target: T6, Wnt8a-V5 (UniProt Q9H1J5); experiment: as above
T6 sequence: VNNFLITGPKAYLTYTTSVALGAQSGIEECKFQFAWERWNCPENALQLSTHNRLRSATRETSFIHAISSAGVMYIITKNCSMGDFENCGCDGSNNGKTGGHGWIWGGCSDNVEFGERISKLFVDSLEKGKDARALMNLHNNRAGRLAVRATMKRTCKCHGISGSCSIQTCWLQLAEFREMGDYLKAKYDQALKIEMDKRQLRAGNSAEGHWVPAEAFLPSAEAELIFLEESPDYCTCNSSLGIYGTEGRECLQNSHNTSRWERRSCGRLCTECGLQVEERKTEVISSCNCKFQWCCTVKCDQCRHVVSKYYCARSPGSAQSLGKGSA

| binding [1] | binding (Wnt3a-V5 [2]) | binding (Wnt10b-V5 [3]) | binding (Wnt2-V5) | binding (FZD4 (Frizzled-4)) | binding (FZD5 (SNAP-Fzd5)) | binding (Wnt9a-V5) | binding (Wnt3a-V5 [4]) | binding (Wnt8b-V5) | binding [5] | binding (Wnt10b-V5 [6]) | binding (Wnt8a-V5) | Molecule |
| --- | --- | --- | --- | --- | --- | --- | --- | --- | --- | --- | --- | --- |
| no binding |  |  |  |  |  |  |  |  |  |  |  | Wnt3a-V5 (from UniProt P56704 19-352) (ligand) |
|  | binds | binds | binds | binds | binds | binds | binds | binds | binds | binds | binds | B1 |
